Results on 70 compounds are retold here after PubChem BioAssay AID662 (National Center for Advancing Translational Sciences (NCATS), 2007).

SMILES strings stand for the structures. This is one part of the list. These are further read-outs of the screen, such as a control signal, another cell line or another target. No call is given for them. Most of these compounds were active or inconclusive in the main read-out, so they are no random draw. Potencies come from curve fits of mixed quality, noted in brackets.

This assay in a line: Cell signaling CRE-BLA (Fsk stim). The note with it: CHO CRE-bla reporter (cAMP response element driving beta-lactamase), forskolin EC10, beta-lactamase ratio; measured here: 460 nm blue channel. An excerpt:
NIH Molecular Libraries Screening Centers Network [MLSCN]
NIH Chemical Genomics Center [NCGC]
Assay Provider: Marshall W. Nirenberg, U.S. National heart lung & blood institute
Memories persist for different lengths of time, from seconds or minutes to a lifetime. There are two kinds of memory: short-term memory (STM) and long-term memory (LTM). STM lasts for minutes to hours, which maybe mediated by modifications of molecules involved in synaptic functions. LTM lasts for days or longer, and may be due to the formation of new synapses or restructuring of existing synapses. LTM, but not STM, requires gene transcription and synthesis of proteins. CREB (cyclic-AMP Responsive Element Binding Protein) is one of the candidates plays an important role for enhancement of some types of LTM. CREB, a family of transcription factors, regulates the transcription of genes containing cAMP Responsive Elements (CRE). CRE is a nucleotide sequence often found in the promoter regions of genes that are binding sites for CREB.
Using a beta-lactamase reporter-gene under control of cAMP responsive element, a cell-based assay [CellSensor(TM) CRE-bla CHO developed by Invitrogen Corp.] was used to measure forskolin-induced signaling. Library compounds were measured for their ability to modulate positively or negatively the action of EC10 NKH 477, a water soluble forskolin, on reporter gene activity. Compounds were screened in a titration series in 1536-well format. Positive and negative modulators were identified based on the AC50 values derived from the screening data.
NCGC Assay Protocol Summary
2000 cells/5uL in Opti-MEM medium containing 0.5% dialyzed FBS, 0.1 mM NEAA, 1 mM sodium pyruvate and 10 mM HEPES was dispensed into 1536-well plates and cells were cultured at 37 degrees Celsius overnight. […] And then the plates were incubated at 37 degrees Celsius for 3 hours. 1 uL of CCF4-dye mixture was added to each well. After incubated at room temperature for 2 hours the plates were measured on an EnVision plate reader at Excitation 405nm, Emission1=460nm and Emission 2=530nm. The %Activity was determined from the ratio of 460nm/530nm.
Keywords: NIH Roadmap, MLSCN, MLSMR, qHTS, NCGC, CRE, beta-lactamase reporter-gene assay.
One may read the AC50 as the concentration giving half of the maximal activity seen. Turning to `Cc1cccc(-n2c(O)c(C=Nc3ccc4c(c3)OCO4)c3ccccc3c2=O)n1`, the AC50 was 2.51 µM [rising, partial curve].

Turning to `Cc1c(C(=O)NCCC2=CCCCC2)oc2ccc(S(=O)(=O)N3CCOCC3)cc12`, the AC50 was 12.6 µM [falling, partial curve].

For `Cc1noc(C)c1CSc1ncnc2sc3c(c12)CCC3`, the AC50 was 0.0398 µM [falling, full curve].

With `Cc1ccc2nc(CC(=O)c3ccc4ccccc4c3)c(=O)[nH]c2c1`, the AC50 is 0.794 µM [rising, partial curve, poor fit].

With `COc1ccc(OC)c(NC(=O)C2CC(=O)N(c3ccccc3)C2)c1` (stereo not given), the AC50 is 25.1 µM [rising, single point].

For the compound `Cc1cc(C)c2c(=O)[nH]c(SCC(=O)N3CCCCC3)nc2n1`, the AC50 was 1.26 µM [rising, partial curve].

For `COc1cccc(-c2cc(NCc3cccnc3)ncn2)c1`, the AC50 was 12.6 µM [rising, partial curve].

With `CCNc1ncc2nc(C)c(=O)n(Cc3cccc(OC)c3)c2n1`, the AC50 was 12.6 µM [rising, partial curve].

Turning to `COc1ncnc2c1N=C1CC(C)(C)CC(N)=C1S2`, the AC50 was 25.1 µM [rising, single point].

Consider `COc1cc(C(=O)NCCc2cn3ccc(C)cc3n2)cc(OC)c1OC`, for which the AC50 was 6.31 µM [rising, partial curve].

Take `CCOc1ccc(N(Cc2cc3cc(OC)ccc3[nH]c2=O)S(C)(=O)=O)cc1`: the concentration at half-maximal activity (AC50) is 25.1 µM [rising, single point].

For the compound `Cn1c(=O)c2c(nc3sccn32)n(C)c1=O`, the concentration at half-maximal activity (AC50) was 0.794 µM [falling, full curve].

Turning to `O=c1[nH]c(=O)n(C2CCCCCC2)c(O)c1C=NCc1ccc(F)cc1`, the AC50 was 12.6 µM [rising, partial curve].

For the compound `CC(=O)Nc1ccc(S(=O)(=O)NCc2ccc(C(=O)NCCN3CCCCCC3)cc2)cc1`, the AC50 was 0.00398 µM [falling, full curve, poor fit].

Regarding `O=C(CCCN1C(=O)C2C3C=CC(C3)C2C1=O)N1CCN(c2ccccc2)CC1` (stereo not given), the AC50 was 25.1 µM [rising, single point].

On to `c1ccc(Nc2c3c(nc4ncnn24)CCC3)cc1`, for which the AC50 was 10 µM [rising, partial curve].

Take `COc1cccc(C2CC(c3ccccc3Cl)n3nnnc3N2)c1` (stereo not given): the AC50 is 12.6 µM [rising, single point].

Consider `CCOC(=O)N1CCC(NC(=O)CSc2cc(=O)n(C)c3ccc(Cl)cc23)CC1`, for which the AC50 was 0.2 µM [rising, full curve, poor fit].

On to `CCn1cc(C(=O)N2CC=C(c3ccccc3)CC2)c(=O)c2ccc(C)nc21`, for which the AC50 was 10 µM [rising, partial curve].

For the compound `NC(N)=NC(N)=Nc1cccc(Cl)c1`, the AC50 is 31.6 µM [falling, single point].

As for `O=C1c2ccccc2NC2CCCCC12` (stereo not given), the AC50 is 0.398 µM [falling, single point].

For the compound `Cc1nc2nc(C)n(-c3ccccc3)c2s1`, the AC50 was 12.6 µM [rising, single point].

On to `CCOc1c(Br)ccc2c1sc1nc[nH]c(=O)c12`, for which the AC50 is 12.6 µM [falling, single point].

Take `CSCCOC(=O)C1=C(C)NC(=O)CC1c1ccccc1Cl` (stereo not given): the AC50 was 7.94 µM [falling, partial curve].

For `c1ccc(N2CCN(Cc3ccsc3)CC2)nc1`, the AC50 is 0.00631 µM [falling, full curve].

On to `N#Cc1ccc(CSc2nnc(NC(=O)C3CCCO3)s2)cc1` (stereo not given), for which the AC50 was 5.01 µM [falling, partial curve].

As for `Cc1ccc(SCC(=O)NCC(C)C)cc1`, the AC50 was 0.0631 µM [rising, full curve].

For `O=C(N1CCOCC1)N1CCN(c2nc(-c3ccccc3)cs2)CC1`, the AC50 is 12.6 µM [rising, partial curve].

As to `O=C(NCc1nc(-c2ccccc2)no1)c1ccc(Br)o1`, the AC50 was 0.00316 µM [falling, full curve].

Consider `O=C(O)C1CCN(C(=O)c2scc3c2OCCO3)CC1`, for which the AC50 was 2 µM [rising, partial curve].

On to `Cc1cnc(CNc2ncncc2-c2c(C)noc2C)cn1`, for which the AC50 is 20 µM [rising, single point].

Consider `CCSc1nc2c(c(=O)[nH]1)C(c1cccnc1)C(C(=O)OC(C)C)=C(C)N2` (stereo not given), for which the AC50 was 31.6 µM [rising, single point].

With `CCOC(=O)CSc1cccc2cccnc12`, the AC50 is 12.6 µM [falling, partial curve].

`COc1ccc(CN2C(=O)CCC2(C)C(=O)NC2CCCCC2)c(OC)c1` (stereo not given): the AC50 was 0.0398 µM [falling, full curve].

`C=CCn1c(SCc2nc3ccccc3nc2C)nnc1-c1ccoc1C`: the AC50 is 15.8 µM [rising, partial curve].

Turning to `CC(C)CN(CC(C)C)S(=O)(=O)N1CCC(C(=O)NCc2cccs2)CC1`, the AC50 was 3.98 µM [rising, single point].

For `O=c1c(O)c(-c2ccc(O)cc2)oc2cc(O)ccc12`, the AC50 was 25.1 µM [rising, partial curve].

As for `Cc1noc(NS(=O)(=O)c2ccc(N3Cc4ccccc4C3=O)cc2)c1C`, the AC50 was 10 µM [rising, partial curve].

As to `NC(=O)CSc1nc2scc(-c3ccco3)c2c(=O)n1-c1ccccc1`, the AC50 was 15.8 µM [rising, partial curve].

Turning to `Cc1nn(C(=O)c2ccco2)c(C)c1CN1C(=O)c2ccccc2C1=O`, the AC50 was 3.98 µM [rising, partial curve].

Turning to `CC(=O)Nc1ccc(S(=O)(=O)NCCN2CCOCC2)cc1`, the AC50 is 0.00316 µM [falling, full curve, poor fit].

In the case of `Clc1ccc(C2=Nn3c(nnc3-c3n[nH]c4c3CCC4)SC2)cc1`, the AC50 is 0.631 µM [rising, full curve].

On to `CC(C)=CC(=O)OCC(=O)NC(=O)NC(C)(C)C`, for which the AC50 is 0.126 µM [falling, partial curve, poor fit].

For `CCn1c(=N)c(C(=O)NCCCOC)cc2c(=O)n3cccc(C)c3nc21`, the AC50 was 1.58 µM [rising, full curve].

Turning to `CCN(C(=O)Cc1cccs1)c1nnc(-c2cccnc2)s1`, the AC50 was 10 µM [rising, single point].

Take `COc1ccccc1N1CCN(C(=O)CCNS(=O)(=O)c2ccc3c(c2)CCC(=O)N3)CC1`: the AC50 was 25.1 µM [falling, single point].

`O=C(O)c1cccc(NS(=O)(=O)c2ccc3nnn(O)c3c2)c1`: the AC50 was 0.00501 µM [falling, full curve, poor fit].

On to `CCC(C)NC(=O)c1cn(CC)c2ccc(S(=O)(=O)N(C)C)cc2c1=O` (stereo not given), for which the AC50 was 10 µM [rising, partial curve].

Consider `COc1cc(-c2nc3cnccn3c2Nc2ccccc2)ccc1O`, for which the AC50 is 5.01 µM [rising, partial curve].

Consider `Cc1ccc(S(=O)(=O)N(CC(=O)NCc2ccco2)Cc2ccc(F)cc2)cc1`, for which the AC50 was 10 µM [falling, single point].

For `C1CCN(c2nc3nonc3nc2N2CCCC2)C1`, the AC50 was 15.8 µM [rising, single point].

For the compound `COc1cccc(-c2nc(N(C)Cc3ccco3)c3ccccc3n2)c1`, the AC50 is 3.16 µM [rising, full curve].

`COc1ccc2cc1Oc1ccc(cc1)C[C@H]1c3cc(c(OC)cc3CCN1C)Oc1c(OC)c(OC)cc3c1[C@@H](C2)N(C)CC3`: the AC50 was 2.51 µM [rising, full curve].

Consider `O=C(c1ccc(C#Cc2ccccc2)o1)N1CCN(c2ccccn2)CC1`, for which the AC50 was 25.1 µM [falling, single point].

Take `COC(=O)c1c(=O)n(O)c2ccc(OC)cc2[n+]1[O-]`: the AC50 is 12.6 µM [falling, partial curve, poor fit].

On to `Cc1noc(C)c1-c1nc(Nc2ccccc2)c2ccccc2n1`, for which the AC50 was 2.51 µM [rising, full curve].

As to `Cc1ccc(-c2csc3nnc(SCC(=O)NCc4ccc5c(c4)OCO5)n23)cc1`, the AC50 was 10 µM [rising, partial curve].

Turning to `CCOc1ccc2nc(SCC#N)c(C#N)cc2c1`, the AC50 is 3.98 µM [rising, partial curve].

Turning to `O=C(Nc1ccc(N2CCN(C(=O)c3ccccc3)CC2)cc1)c1cc2ccccc2o1`, the AC50 was 5.01 µM [falling, single point].

Consider `COC(=O)C1CCN(c2nc3ccccc3nc2C(C#N)C(=O)OCC(C)C)CC1` (stereo not given), for which the AC50 was 10 µM [rising, partial curve].

`CCCCNc1ncnc2c1cnn2-c1ccc(Cl)cc1`: the AC50 is 7.94 µM [rising, partial curve].

Take `COc1ccc(OCCSc2nnc3sc4ccccc4n23)cc1`: the AC50 is 0.794 µM [rising, full curve].

Regarding `O=c1ccnc(S/C=C/c2ccccc2)[nH]1`, the AC50 is 0.126 µM [falling, full curve].

Take `O=c1c(O)c(-c2cccc(O)c2)oc2ccccc12`: the AC50 is 12.6 µM [rising, single point].

As for `O=C(Sc1nnc(-c2ccccc2)o1)N1c2ccccc2Sc2ccccc21`, the AC50 is 1.26 µM [falling, partial curve].

`C=CCn1sc(N)c(C(=O)OCC)c1=S`: the AC50 was 5.01 µM [falling, single point].

With `O=c1ccc2cc(O)c(O)cc2o1`, the AC50 is 10 µM [rising, partial curve].

`COC(=O)c1[nH]c2cccc(Cl)c2c1NC(=O)CN1CCCCC1C` (stereo not given): the AC50 is 0.01 µM [falling, full curve].

As for `COc1ccc(C2=CC(c3ccc(OC)c(OC)c3)n3nnnc3N2)c(OC)c1` (stereo not given), the AC50 was 12.6 µM [rising, partial curve].

Consider `Cc1cccc(NC(=O)CCn2ccnc2C)c1`, for which the AC50 is 25.1 µM [falling, single point].
